According to article PMC5399635 (The Journal of Pharmacology and Experimental Therapeutics, 2017):

Conditions: rat, in vivo, 30 s, 20 μM, pH 7.4

SMILES: CC(C)NCC(O)COc1ccc(CC(N)=O)cc1 (stereo not shown) [Atenolol, atenolol]
- Brain Uptake: 5.2 ± 2.2 pmol/g brain/s
